{"sequences": {"note": "By UniProt entry, the sequences of proteins in these tests, tags left out. Where a name states a change or a piece, a line headed by the entry shows the natural chain unless it says otherwise.", "UniProt P0CAW0": "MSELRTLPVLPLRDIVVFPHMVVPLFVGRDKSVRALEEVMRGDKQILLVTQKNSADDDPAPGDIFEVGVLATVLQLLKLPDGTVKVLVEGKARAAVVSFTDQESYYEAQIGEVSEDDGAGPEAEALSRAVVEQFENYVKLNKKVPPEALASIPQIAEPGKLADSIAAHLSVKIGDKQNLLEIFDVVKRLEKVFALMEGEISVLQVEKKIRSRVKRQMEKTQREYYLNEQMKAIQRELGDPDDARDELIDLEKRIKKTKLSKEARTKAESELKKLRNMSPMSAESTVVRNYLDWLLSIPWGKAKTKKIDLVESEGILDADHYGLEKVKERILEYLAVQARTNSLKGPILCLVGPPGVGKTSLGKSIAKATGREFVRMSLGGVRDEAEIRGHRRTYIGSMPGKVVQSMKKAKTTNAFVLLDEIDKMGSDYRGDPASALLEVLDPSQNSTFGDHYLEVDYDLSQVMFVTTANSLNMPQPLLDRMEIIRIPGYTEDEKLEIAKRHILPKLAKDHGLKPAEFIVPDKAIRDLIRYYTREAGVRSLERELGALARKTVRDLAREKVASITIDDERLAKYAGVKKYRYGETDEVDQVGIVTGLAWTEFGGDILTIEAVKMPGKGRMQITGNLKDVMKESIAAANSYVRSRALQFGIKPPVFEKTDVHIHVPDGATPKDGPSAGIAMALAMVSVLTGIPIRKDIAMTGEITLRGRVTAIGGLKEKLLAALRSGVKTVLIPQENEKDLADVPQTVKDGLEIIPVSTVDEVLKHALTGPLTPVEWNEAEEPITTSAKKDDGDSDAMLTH"}, "source": "paper doi:10.1101/317677", "target": "Lon4E (UniProt P0CAW0)", "assay": "fluorescence polarization", "settings": "300 nM hexamer, 200 nM DNA, 10 mM MgCl2", "note": "Construct, isoform or probe ends are uncertain for at least one entry. Negatives hold for the conditions tested."}
{"sequence": "AACGGATGATCCACAGGAGAGTCTGGCGCAGGGCGAGAG [FAM-DNA oligo]", "values": [{"measurement": "binding result", "value": "no binding"}]}
